# Measured values: the supplement of paper PMC8728848
# The list shows a part of the results.
# B1: PX14375D-bvu-513-34-513 (Bacteroides vulgatus) (protein)
# chain: TEDTFWKDETDFNLALTSCYTPLKNALNGGYYGTRGVMLRIARADEVDFRNDISDVYTVNRFTNSNTNSLTQGMFYQFYNALYRTNSIMQKLEEKKEQFSTDFQNSVKGECLFIRGFYLFQLAKEFKDAPLRLTASQSPSTFPLAKSSQADIWAQAKEDLKTAASLLPITNKIGKPTQGAAYAALGKIYVYEENWQEAINVLEPLTQNPYTYKLVEDFNWNFDDTHENNAESIFELLIEDVGGTDLWGDGENINSTQSNTRPKEYAAAEVGGWYEANPTQQIMDIFWKEKDKDGNFDYRARCSVAWDYEGCTYYQRPFREVFAQDKWKTYWILKYQNWKTQKDEPAPPKSFINERAIRYADVLLMLAEAYMNKGALDTSIGYINQIRRRANLNDYSGPITKEGVFEDLVHQRAIEFFVEGERFYDLRRWGLLEQTLKTCDDTRYKNYQTGKSDNINKFNYFPIPAKELDTNPLCTPSEGW
# Legend:
# Assay in all cases: glycan array binding signal (z-score within array); higher = stronger binding
# Conditions in all cases: glycan notation: IUPAC condensed, linker removed
# [1] = target: Neu5Ac(a2-3)Gal(b1-4)GlcNAc(b1-6)GalNAc
# How it was run: (§1)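 Arrays were curated from the Consortium for Functional Glycomics database, 3228 in total, and kept only where the protein sequence was available. Binding is expressed as a within-array Z-score. This score was averaged across arrays of the same protein sequence at different concentrations or buffers and across linkers, and negative values can be read as non-binding.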
# [2] = target: Neu5Ac(a2-3)Gal(b1-4)GlcNAc(b1-6)[Gal(b1-3)]GalNAc
# How it was run: as §1
# [3] = target: Neu5Ac(a2-3)Gal(b1-4)GlcNAc(b1-6)[Neu5Ac(a2-3)Gal(b1-3)]GalNAc
# How it was run: as §1
# [4] = target: Neu5Ac(a2-3)Gal(b1-4)GlcNAc6S
# How it was run: as §1
# [5] = target: Neu5Ac(a2-3)Gal(b1-4)[Fuc(a1-3)]GlcNAc
# How it was run: as §1
# [6] = target: Neu5Ac(a2-3)Gal(b1-4)[Fuc(a1-3)]GlcNAc(b1-2)Man
# How it was run: as §1
# [7] = target: Neu5Ac(a2-3)Gal(b1-4)[Fuc(a1-3)]GlcNAc(b1-3)Gal
# How it was run: as §1
# [8] = target: Neu5Ac(a2-3)Gal(b1-4)[Fuc(a1-3)]GlcNAc(b1-3)Gal(b1-4)GlcNAc
# How it was run: as §1
# [9] = target: Neu5Ac(a2-3)Gal(b1-4)[Fuc(a1-3)]GlcNAc(b1-3)Gal(b1-4)[Fuc(a1-3)]GlcNAc(b1-3)Gal(b1-4)[Fuc(a1-3)]GlcNAc
# How it was run: as §1
# [10] = target: Neu5Ac(a2-3)Gal(b1-4)[Fuc(a1-3)]GlcNAc(b1-3)GalNAc
# How it was run: as §1
# [11] = target: Neu5Ac(a2-3)Gal(b1-4)[Fuc(a1-3)]GlcNAc(b1-6)[Gal(b1-3)]GalNAc
# How it was run: as §1
# [12] = target: Neu5Ac(a2-3)Gal(b1-4)[Fuc(a1-3)]GlcNAc(b1-6)[Neu5Ac(a2-3)Gal(b1-3)]GalNAc
# How it was run: as §1
# [13] = target: Neu5Ac(a2-3)Gal(b1-4)[Fuc(a1-3)]GlcNAc6S
# How it was run: as §1
# [14] = target: Neu5Ac(a2-3)Gal6S(b1-4)GlcNAc
# How it was run: as §1
# [15] = target: Neu5Ac(a2-3)Gal6S(b1-4)[Fuc(a1-3)]GlcNAc
# How it was run: as §1
# Neu5Ac(a2-3)GalNAc = target: Neu5Ac(a2-3)GalNAc
# How it was run: as §1
# [16] = target: Neu5Ac(a2-3)GalNAc(b1-4)GlcNAc
# How it was run: as §1
# [17] = target: Neu5Ac(a2-3)[GalNAc(b1-4)]Gal(b1-4)Glc
# How it was run: as §1
# [18] = target: Neu5Ac(a2-3)[GalNAc(b1-4)]Gal(b1-4)GlcNAc
# How it was run: as §1
# [19] = target: Neu5Ac(a2-3)[GalNAc(b1-4)]Gal(b1-4)GlcNAc(b1-3)GalNAc
# How it was run: as §1
# [20] = target: Neu5Ac(a2-3)[Neu5Ac(a2-6)]GalNAc
# How it was run: as §1
# Neu5Ac(a2-6)Gal = target: Neu5Ac(a2-6)Gal
# How it was run: as §1
# [21] = target: Neu5Ac(a2-6)Gal(b1-3)GlcNAc(b1-3)[Gal(b1-4)GlcNAc(b1-6)]Gal(b1-4)Glc
# How it was run: as §1
# Neu5Ac(a2-6)Gal(b1-4)Glc = target: Neu5Ac(a2-6)Gal(b1-4)Glc
# How it was run: as §1
# [22] = target: Neu5Ac(a2-6)Gal(b1-4)GlcNAc
# How it was run: as §1
# [23] = target: Neu5Ac(a2-6)Gal(b1-4)GlcNAc(b1-2)Man
# How it was run: as §1
# [24] = target: Neu5Ac(a2-6)Gal(b1-4)GlcNAc(b1-2)Man(a1-3)Man(b1-4)GlcNAc(b1-4)GlcNAc
# How it was run: as §1
# [25] = target: Neu5Ac(a2-6)Gal(b1-4)GlcNAc(b1-2)Man(a1-3)[Gal(b1-4)GlcNAc(b1-2)Man(a1-6)]Man(b1-4)GlcNAc(b1-4)GlcNAc
# How it was run: as §1
# [26] = target: Neu5Ac(a2-6)Gal(b1-4)GlcNAc(b1-2)Man(a1-3)[GlcNAc(b1-2)Man(a1-6)]Man(b1-4)GlcNAc(b1-4)GlcNAc
# How it was run: as §1
# [27] = target: Neu5Ac(a2-6)Gal(b1-4)GlcNAc(b1-2)Man(a1-3)[GlcNAc(b1-4)][Neu5Ac(a2-6)Gal(b1-4)GlcNAc(b1-2)Man(a1-6)]Man(b1-4)GlcNAc(b1-4)GlcNAc
# How it was run: as §1
# [28] = target: Neu5Ac(a2-6)Gal(b1-4)GlcNAc(b1-2)Man(a1-3)[Man(a1-6)]Man(b1-4)GlcNAc(b1-4)GlcNAc
# How it was run: as §1
binder,measurement,setting,value
B1,glycan array binding signal (z-score),[1],-0.439
same,glycan array binding signal (z-score),[2],0.59
same,glycan array binding signal (z-score),[3],-0.634
same,glycan array binding signal (z-score),[4],-0.399
same,glycan array binding signal (z-score),[5],-0.254
same,glycan array binding signal (z-score),[6],0.029
same,glycan array binding signal (z-score),[7],-0.627
same,glycan array binding signal (z-score),[8],1.04
same,glycan array binding signal (z-score),[9],-0.006
same,glycan array binding signal (z-score),[10],1.33
same,glycan array binding signal (z-score),[11],-0.359
same,glycan array binding signal (z-score),[12],0.243
same,glycan array binding signal (z-score),[13],0.349
same,glycan array binding signal (z-score),[14],0.881
same,glycan array binding signal (z-score),[15],-0.649
same,glycan array binding signal (z-score),Neu5Ac(a2-3)GalNAc,-0.732
same,glycan array binding signal (z-score),[16],-0.324
same,glycan array binding signal (z-score),[17],-0.02
same,glycan array binding signal (z-score),[18],0.138
same,glycan array binding signal (z-score),[19],-0.29
same,glycan array binding signal (z-score),[20],0.151
same,glycan array binding signal (z-score),Neu5Ac(a2-6)Gal,0.398
same,glycan array binding signal (z-score),[21],0.171
same,glycan array binding signal (z-score),Neu5Ac(a2-6)Gal(b1-4)Glc,-0.091
same,glycan array binding signal (z-score),[22],-0.712
same,glycan array binding signal (z-score),[23],-0.379
same,glycan array binding signal (z-score),[24],-0.394
same,glycan array binding signal (z-score),[25],0.663
same,glycan array binding signal (z-score),[26],-0.096
same,glycan array binding signal (z-score),[27],-0.86
same,glycan array binding signal (z-score),[28],-0.526

# Part of the list above, with bars between the fields.
binder | measurement | setting | value
B1 | glycan array binding signal (z-score) | [22] | -0.712
same | glycan array binding signal (z-score) | [23] | -0.379
